Reference: PMC10905564

B1: LATE FLOWERING (LATE), full-length (protein, UniProt Q9FKA9 1-173)
chain: MEDHYHQVEVEGEEEIKPSKEANKTDENTSSLRIFPCLFCSRKFHSSQALGGHQNAHKKERTAARRAKRAYDFVNNNDFLHTLPVFLSSPSQHHLTILGYPASASVACFPTVHPDHPIFKSSGSHVVLATSHQGRDCKGGYCCQQRVDILDHHYNVVNSDKGKDQCLDLSLHL
B2: CRABS CLAW (CRC) (protein, UniProt Q8L925 1-181)
chain: MNLEEKPTMTASRASPQAEHLYYVRCSICNTILAVGIPLKRMLDTVTVKCGHCGNLSFLTTTPPLQGHVSLTLQMQSFGGSDYKKGSSSSSSSSTSSDQPPSPSPPFVVKPPEKKQRLPSAYNRFMRDEIQRIKSANPEIPHREAFSAAAKNWAKYIPNSPTSITSGGHNMIHGLGFGEKK
B3: TOPLESS (TPL) (protein, UniProt Q94AI7 1-1131)
chain: MSSLSRELVFLILQFLDEEKFKETVHKLEQESGFFFNMKYFEDEVHNGNWDEVEKYLSGFTKVDDNRYSMKIFFEIRKQKYLEALDKHDRPKAVDILVKDLKVFSTFNEELFKEITQLLTLENFRENEQLSKYGDTKSARAIMLVELKKLIEANPLFRDKLQFPTLRNSRLRTLINQSLNWQHQLCKNPRPNPDIKTLFVDHSCGPPNGARAPSPVNNPLLGGIPKAGGFPPLGAHGPFQPTASPVPTPLAGWMSSPSSVPHPAVSAGAIALGGPSIPAALKHPRTPPTNASLDYPSADSEHVSKRTRPMGISDEVNLGVNMLPMSFSGQAHGHSPAFKAPDDLPKTVARTLSQGSSPMSMDFHPIKQTLLLVGTNVGDIGLWEVGSRERLVQKTFKVWDLSKCSMPLQAALVKEPVVSVNRVIWSPDGSLFGVAYSRHIVQLYSYHGGEDMRQHLEIDAHVGGVNDISFSTPNKQLCVITCGDDKTIKVWDAATGVKRHTFEGHEAPVYSVCPHYKENIQFIFSTALDGKIKAWLYDNMGSRVDYDAPGRWCTTMAYSADGTRLFSCGTSKDGESFIVEWNESEGAVKRTYQGFHKRSLGVVQFDTTKNRYLAAGDDFSIKFWDMDAVQLLTAIDGDGGLQASPRIRFNKEGSLLAVSGNENVIKIMANSDGLRLLHTFENISSESSKPAINSIAAAAAAAATSAGHADRSANVVSIQGMNGDSRNMVDVKPVITEESNDKSKIWKLTEVSEPSQCRSLRLPENLRVAKISRLIFTNSGNAILALASNAIHLLWKWQRNERNATGKATASLPPQQWQPASGILMTNDVAETNPEEAVPCFALSKNDSYVMSASGGKISLFNMMTFKTMATFMPPPPAATFLAFHPQDNNIIAIGMDDSTIQIYNVRVDEVKSKLKGHSKRITGLAFSNVLNVLVSSGADAQLCVWNTDGWEKQRSKVLPLPQGRPNSAPSDTRVQFHQDQAHFLVVHETQLAIYETTKLECMKQWAVRESLAPITHATFSCDSQLVYASFMDATVCVFSSANLRLRCRVNPSAYLPASLSNSNVHPLVIAAHPQEPNMFAVGLSDGGVHIFEPLESEGKWGVAPPAENGSASGAPTAPSVGASASDQPQR

These binders were tested against LATE without the EAR motif (LATEΔEAR) (Arabidopsis thaliana) (assay: two-hybrid; bait fused to Gal4 DNA-BD (pDEST_GBKT7), prey fused to Gal4 AD (pDEST_GADT7), yeast strain Y2H gold; spotted onto SD -W/-L or SD -W/-L/-H with 0, 0.05 or 0.1 mM 3-AT; 30°C in the dark, 7-10 days).
In the case of B1, the binding is reported as “binds”.
With B2 the binding was “binds”.
For B3, the binding was “no binding”.

Results are given in words; binding and its absence hold for the method and conditions named. Binding can be weak; no strength is given.
